# Experimental data from PubChem BioAssay AID720504 (National Center for Advancing Translational Sciences (NCATS), 2013).
# Chains of the proteins cited; added tags and fusions are not shown.
# UniProt P53350, whole entry, looked up: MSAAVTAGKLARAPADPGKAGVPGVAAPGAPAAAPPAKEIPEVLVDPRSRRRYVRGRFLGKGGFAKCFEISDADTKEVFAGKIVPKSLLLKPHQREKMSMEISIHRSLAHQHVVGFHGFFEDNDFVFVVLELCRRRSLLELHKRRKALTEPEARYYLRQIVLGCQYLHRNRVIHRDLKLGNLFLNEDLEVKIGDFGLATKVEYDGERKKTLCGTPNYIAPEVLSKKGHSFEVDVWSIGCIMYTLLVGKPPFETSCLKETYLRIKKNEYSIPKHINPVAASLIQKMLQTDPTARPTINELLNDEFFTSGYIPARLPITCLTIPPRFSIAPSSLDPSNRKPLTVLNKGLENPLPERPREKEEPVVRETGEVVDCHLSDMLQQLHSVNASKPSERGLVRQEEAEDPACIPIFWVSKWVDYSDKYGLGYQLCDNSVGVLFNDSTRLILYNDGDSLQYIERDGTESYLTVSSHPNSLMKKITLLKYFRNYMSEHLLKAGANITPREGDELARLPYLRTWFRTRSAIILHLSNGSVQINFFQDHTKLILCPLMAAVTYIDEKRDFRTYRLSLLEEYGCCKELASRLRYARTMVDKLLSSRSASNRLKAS
# Hit rate of the full screen: of about 360,000 compounds, about 10,000 (2.8%) were called active. The inconclusive results got no clear call from the source; some entries with a clear call stand among them for comparison. The call rests on the fitted dose curve; in most records, active means well fitted inhibition curve with a large enough effect; inconclusive means small, poorly fitted or top-dose-only effect; inactive means flat fitted curve, though single readings scatter. Potencies beside an inconclusive call are fits to weak or partial responses and may not hold up.
# Target: Serine/threonine-protein kinase PLK1 (Homo sapiens) (UniProt P53350)
# Experiment: qHTS for Inhibitors of PLK1-PDB (polo-like kinase 1 - polo-box domain): Primary Screen; further: nearly all actives have a fitted effect of over 65% in size; on max response, negative = inhibition: series mostly up to about 57 µM
# Conditions: Plk1 PBD binding of FITC phosphopeptide, fluorescence polarization
# On the % scale 0 is the no-effect control and ±100 the full control effect; potency means the concentration at half of the fitted maximal effect.
SMILES,Potency,"max response, negative = inhibition"
O=C(CN1C(=O)NC2(CCCCCC2)C1=O)NC1CC1,"inconclusive: 15 µM [inhibitor, partial curve]",–
CCCOc1ccc(CNC(=O)Cc2cccs2)cc1,–,inactive: -3.17%
CC1Cc2ccccc2N1C(=O)CCS(=O)(=O)c1ccc2c(c1)NC(=O)CS2 (stereo unspecified),active: 18.9 µM,–
COc1ccccc1C(=O)NNC(=O)C(=O)Nc1cccc(Cl)c1C,"inconclusive: 26.7 µM [inhibitor, single point]",–
Cc1ccc(N2NC(=O)/C(=C/c3ccc(-c4ccc(Cl)c(C(=O)O)c4)o3)C2=O)cc1,"inconclusive: 29.9 µM [inhibitor, partial curve]",–
COc1ccc(CCCc2n[nH]c(=S)o2)cc1,–,inactive: -3.33%
CC(C)C(N)c1csc(NC(=O)Nc2ccc(OC(F)(F)F)cc2)n1 (stereo unspecified),–,inactive: 0.52%
Cc1cc(NS(=O)(=O)c2ccc(NC(=O)c3cc(-c4cccnc4)nc4ccc(Cl)cc34)cc2)no1,"inconclusive: 31.6 µM [inhibitor, single point]",–
CCN(CC)S(=O)(=O)c1cccc(-c2n[nH]c(=S)n2/N=C/c2ccc(C(=O)OC)cc2)c1,active: 10.6 µM,–
N#Cc1c2c(c(Nc3ccccc3)n3c1nc1ccccc13)CCC2,"inconclusive: 15 µM [inhibitor, partial curve]",–
COc1ccc(/C=C/C(=O)NC2CCCCCCC2)cc1S(=O)(=O)N1CCOCC1,–,inactive: -4.97%
COC(=O)CCC(=O)OC1(C)C(=O)C2=CN(CCCOC(C)C)C(c3ccc(OC)cc3)=CC2=C(Br)C1=O (stereo unspecified),"inconclusive: 13.4 µM [inhibitor, partial curve]",–
COc1ccc(C2=CC(c3ccc(OC)c(OC)c3)NC(=S)N2)cc1 (stereo unspecified),"inconclusive: 23.8 µM [inhibitor, partial curve]",–
CC1(C)Cc2c(sc3nc4n(c(=O)c23)CCC4)CO1,"inconclusive: 26.7 µM [inhibitor, single point]",–
O=C(CCSc1ccc(Cl)cc1)N1CCN(S(=O)(=O)c2ccccc2)CC1,"inconclusive: 21.2 µM [inhibitor, partial curve]",–
[O-]/C(=C(\C(=S)NCc1ccccc1)[n+]1ccccc1)c1ccc(Cl)cc1,"inconclusive: 18.9 µM [inhibitor, single point]",–
O=C(Oc1ccc(C(=S)N2CCOCC2)cc1Br)c1ccccc1F,active: 23.8 µM,–
Nc1c(C(=O)Nc2ccccc2F)sc2nc(-c3ccco3)ccc12,–,inconclusive: -31.5% [inhibitor]
CN1CCCN(Cc2nc(-c3ccc(Cl)cc3)no2)CC1,"inconclusive: 26.7 µM [inhibitor, partial curve]",–
N#Cc1c(-c2cccs2)cc(C2CC2)nc1SCC(N)=O,"inconclusive: 21.2 µM [inhibitor, partial curve]",–
CCOC(=O)CN1C(=O)S/C(=C/c2cc(C)n(-c3ccccn3)c2C)C1=O,"inconclusive: 37.7 µM [inhibitor, single point]",–
Cc1c(Cl)cccc1NC(=S)NNS(=O)(=O)c1ccc([N+](=O)[O-])cc1,"inconclusive: 18.9 µM [inhibitor, partial curve]",–
COc1cc(/C=C(\C#N)C(N)=O)ccc1OCc1c(C)no[n+]1[O-],–,inactive: -1.85%
S=c1[nH]nc(-c2cc(-c3ccccc3)n[nH]2)n1/N=C/C=C/c1ccco1,"inconclusive: 18.9 µM [inhibitor, partial curve]",–

SMILES,Potency,"max response, negative = inhibition"
Cc1c(/C=N/NC(=O)c2cc(Br)ccc2O)c(=O)n(C)c(=O)n1C,–,inactive: -3.93%
O=C(O)c1ccc(CSc2nc3c(c(=O)[nH]2)CCC3)cc1,–,inactive: -1.68%
COc1ccc(N2CCN(C(=O)c3cc(C4CC4)nn3-c3ccccc3)CC2)cc1,–,inactive: -5.9%
O=c1ccc(-c2n[nH]c(=S)n2-c2ccc(F)c(Cl)c2)n[nH]1,–,inactive: -5.16%
Cc1[nH]c2ccccc2c1[C@H]1[C@@H](CC#N)C1(C)C,active: 29.9 µM,–
O=c1[nH]c2ccc(Br)cc2c(-c2ccccc2)c1CN1CCOCC1,"inconclusive: 33.6 µM [inhibitor, partial curve]",–
Cc1ccc(CSc2nc(-c3ccccc3)c(C#N)c(=O)[nH]2)cc1,"inconclusive: 21.2 µM [inhibitor, single point]",–
Brc1cccc(-c2nc3ccc(Br)cn3c2Cc2ccsc2)c1,"inconclusive: 23.8 µM [inhibitor, single point]",–
CCn1c(SCC(=O)Nc2sc3c(c2C(N)=O)CCC(C)C3)nnc1-c1ccco1 (stereo unspecified),"inconclusive: 15 µM [inhibitor, partial curve]",–
C(=N\N=C\c1cccs1)/c1cccs1,"inconclusive: 26.7 µM [inhibitor, single point]",–
COc1ccc(C(c2c(O)ccc3ccccc23)N2CCOCC2)c(OC)c1 (stereo unspecified),"inconclusive: 18.9 µM [inhibitor, partial curve]",–
CC(Oc1ccc(Cl)cc1Cl)c1nc(-c2ccc(NC(=O)c3cccnc3)cc2)no1 (stereo unspecified),–,inactive: -4.9%
O=C(/C=C/c1ccccc1Cl)NC(=S)Nc1ccccc1C(=O)NC1CCCCC1,"inconclusive: 26.7 µM [inhibitor, single point]",–
CC(C)(C)C(=O)NC(=S)Nc1sc2c(c1C(N)=O)CCC2,"inconclusive: 21.2 µM [inhibitor, partial curve]",–
CN(C)CCCN1C(=O)c2cccc3c(Br)ccc(c23)C1=O,"inconclusive: 26.7 µM [inhibitor, single point]",–
COc1cccc(CC(NC(C)=O)C(=O)NC2CCN(C(=O)c3ccncc3)CC2)c1OC (stereo unspecified),–,inactive: 3.52%
O=C1c2ccccc2[C@@H]2Cc3csc[n+]3[C@H]12,"inconclusive: 10.6 µM [inhibitor, single point]",–
N#Cc1cn(-c2ccccc2)nc1-c1cc2ccccc2oc1=O,"inconclusive: 26.7 µM [inhibitor, single point]",–
CCOC(=O)C1CCN(C(=S)Nc2ccc(S(N)(=O)=O)cc2)CC1,active: 21.2 µM,–
C=CCn1c(SCC(=O)Nc2ccc(F)cc2)nnc1-c1cnccn1,"inconclusive: 42.3 µM [inhibitor, single point]",–
CCc1nc2ccc(C(=O)N3CCN(C(=O)c4ccco4)CC3)cn2c1N(C)Cc1nccn1C,–,inactive: -6.35%
O=C(NCc1ccccn1)c1cc(-c2ccc(Cl)cc2)nc2ccccc12,–,inactive: -3.57%
CCC(c1nc2ccccc2[nH]1)N(Cc1cccnc1)C(=O)c1cc(-c2ccccc2)on1 (stereo unspecified),–,inactive: 0.828%
COC(=O)c1ccccc1NC(=O)CN(C)S(=O)(=O)c1ccc(OC)cc1,–,inactive: -0.233%

SMILES,Potency,"max response, negative = inhibition"
CCOC(=O)c1sc(N/N=C/c2ccccc2)nc1C,active: 8.44 µM,–
CCOc1ccc(C(=O)c2cccs2)cc1,"inconclusive: 23.8 µM [inhibitor, single point]",–
Cc1ccc(-n2ccnc(SCC(=O)NC3CCCCC3)c2=O)cc1F,"inconclusive: 18.9 µM [inhibitor, single point]",–
COc1cc(C(=S)NCc2ccccc2)cc(Br)c1O,active: 4.23 µM,–
COc1ccccc1C1NC=C([N+](=O)[O-])C=C1[N+](=O)[O-] (stereo unspecified),–,inconclusive: -35.9% [inhibitor]
CCn1cc(/C=C(\NC(=O)c2ccccc2F)C(=O)N2CCCC2)c2ccccc21,"inconclusive: 29.9 µM [inhibitor, single point]",–
Clc1ccc(C2=Nn3c(Cn4nnc5ccccc54)nnc3SC2)cc1,active: 8.44 µM,–
Cc1ccc(NC(=S)Nc2ccc(S(=O)(=O)Nc3ncccn3)cc2)c(C)c1,–,inactive: -9%
CC1(C(=O)Nc2ccc3c(c2)OCO3)CCN1C(=O)Cc1cccc2ccccc12 (stereo unspecified),–,inactive: 0.262%
COc1ccc(CCNC(=O)CCNC(=O)N2CC(=O)Nc3ccccc32)cc1,active: 21.2 µM,–
CCCCC(NC(=O)c1cccc(Br)c1)C(=O)O (stereo unspecified),"inconclusive: 18.9 µM [inhibitor, partial curve]",–
COc1cc(NC(=O)COc2cc(C)cc3oc(=O)c(C)c(C)c23)cc(OC)c1OC,"inconclusive: 23.8 µM [inhibitor, partial curve]",–
O=C(NCc1ccc(F)cc1)c1cnccn1,–,inactive: 5.07%
CCOC(=O)c1c(NC(=O)CSc2nccc(=O)[nH]2)sc(C)c1C,–,inconclusive: -31.5% [inhibitor]
CC1(C)Oc2ccc(C(=O)N3CCOCC3)cc2N(CC(=O)Nc2ccccc2)C1=O,"inconclusive: 26.7 µM [inhibitor, single point]",–
COCCN(C(=O)CCC(=O)Nc1cc(C)on1)C(C(=O)NC1CCCC1)c1ccc(C)cc1 (stereo unspecified),–,inconclusive: -36.7% [inhibitor]
C=C(C)C(=O)Nc1cccc(C2=NOC3(C2)C[C@H](C(N)=O)N(C(=O)COc2ccc(Cl)cc2)C3)c1 (stereo partly specified),active: 23.8 µM,–
COc1cccc(/C(O)=C2/C(=O)C(=O)N(CCN3CCOCC3)C2c2cccnc2)c1 (stereo unspecified),–,inactive: -5.14%
Cc1snc(SCC(=O)c2ccc(F)cc2)c1C#N,–,inactive: -9.39%
CCn1c(O)c(/C=C2\C=Nc3ccccc32)sc1=Nc1ccc(C)cc1,–,inactive: -1.41%
COc1ccc(-n2cccc2C=O)cc1,–,inactive: -8.23%
Cc1[nH][nH]c(=O)c1C(c1c(C)[nH][nH]c1=O)c1cn(Cc2cccc3ccccc23)c2ccccc12,active: 7.52 µM,–
CC(C)(C)c1ccc(-c2cc(C(=O)NNC(=O)Nc3ccccc3)c3ccccc3n2)cc1,"inconclusive: 29.9 µM [inhibitor, partial curve]",–

# Another view of some results above.
SMILES	Potency	max response, negative = inhibition
COc1ccc(-n2cccc2C=O)cc1	–	inactive: -8.23%
Cc1[nH][nH]c(=O)c1C(c1c(C)[nH][nH]c1=O)c1cn(Cc2cccc3ccccc23)c2ccccc12	active: 7.52 µM	–
